PMC12431657, “Discovery and mechanistic insights of dibenzoylmethane as a broad spectrum inhibitor of coronavirus” (PLOS Pathogens, 2025)
Counter-ions that a name gives are not always drawn. Like-named read-outs stand apart in the source and are kept apart here. The whole screen tested about 3,300 compounds, of which about 60 (2%) showed an effect of 50% or more. The list shows a part of the results.

Test system: HCoV-OC43
Parameters: species or system RD; HTS, protection from HCoV-OC43 induced cell death, luminescent cell viability (CellCounting-Lite 2.0), inhibition rate
Details: 24 h post infection, 1 h compound pre-incubation, 10 µM, inhibitor

Row | Structure (SMILES) | OC43 Inhibition rate | OC43 Inhibition rate (OC43 Inhibition rate, 24 h)
1 | O=C1N[C@@H](Cc2cnc[nH]2)C(=O)N2CCC[C@@H]12 [Cyclo(his-pro) (TFA)] | 0.7% | –
2 | Cn1cncc1C[C@H](NC(=O)CCN)C(=O)O [L-Anserine nitrate] | – | -3.8%
3 | O=c1c(O[C@@H]2O[C@H](CO)[C@H](O)[C@H](O)[C@H]2O)c(-c2ccc(O)c(O)c2)oc2cc(O)cc(O)c12 [Hyperoside] | 3% | –
4 | CC(=O)/C=C/C1=C(C)CCCC1(C)C [β-Ionone] | -0.1% | –
5 | COc1cc([C@H]2OC[C@H]3[C@@H]2CO[C@@H]3c2ccc(O[C@@H]3O[C@H](CO)[C@@H](O)[C@H](O)[C@H]3O)c(OC)c2)ccc1O [Pinoresinol 4-O-β-D-glucopyranoside] | 3.4% | –
6 | COC(=O)CC/C(C)=C/Cc1c(O)c2c(c(C)c1OC)COC2=O [Methyl mycophenolate] | 61.8% | –
7 | OC[C@H]1O[C@@H](Oc2cc(/C=C/c3cc(O)cc(O)c3)ccc2O)[C@H](O)[C@@H](O)[C@@H]1O [Piceatannol 3'-O-glucoside] | 2% | –
8 | C[C@@H]1C(=O)O[C@H]2[C@H](O)[C@@]34[C@H]5C[C@@H](C(C)(C)C)[C@]36[C@@H](OC(=O)[C@@H]6O)O[C@@]4(C(=O)O5)[C@@]12O [Ginkgolide B] | -0.2% | –
9 | CC1(C)CCC[C@]2(C)[C@H]3CCO[C@]3(C)CC[C@@H]12 [Ambroxide] | -0.5% | –
10 | O=C(O)CCc1cccc(O)c1 [3-(3-Hydroxyphenyl)propionic acid] | -0.3% | –
11 | COC(=O)CCc1ccccc1 [Methyl 3-phenylpropanoate] | 0% | –
12 | CC(C)=CCC[C@](C)(O)[C@H]1CC[C@]2(C)[C@@H]1[C@H](O)C[C@@H]1[C@@]3(C)CC[C@H](O)C(C)(C)[C@@H]3[C@@H](O[C@@H]3O[C@H](CO)[C@@H](O)[C@H](O)[C@H]3O[C@@H]3OC[C@@H](O)[C@H](O)[C@H]3O)C[C@]12C [Notoginsenoside R2] | 0.5% | –
13 | O=c1cc(CCc2ccccc2)oc2c1[C@H](O)[C@@H](O)[C@@H](O)[C@@H]2O [Agarotetrol] | -0.2% | –
14 | CCCCCCCC/C=C/CCCCCCCC(=O)O [Elaidic acid] | -0.4% | –
15 | Oc1cc(O)c2c(c1)O[C@@]1(c3ccc(O)c(O)c3)Oc3cc(O)c4c(c3[C@@H]2[C@H]1O)O[C@H](c1ccc(O)c(O)c1)[C@H](O)C4 [Procyanidin A2] | -2.4% | –
16 | c1cc2c(cc1[C@H]1OC[C@@H]3[C@H]1CO[C@H]3c1ccc3c(c1)OCO3)OCO2 [(-)-Asarinin] | 10.9% | –
17 | C[C@@H]1[C@H]2[C@H](O[C@@H]3O[C@H](CO)[C@@H](O)[C@H](O)[C@H]3O)OC=C(C(=O)O)[C@H]2C[C@@H]1O [Loganic acid] | -0.4% | –
18 | C[C@H](CC[C@@H](O[C@@H]1O[C@H](CO[C@@H]2O[C@H](CO)[C@@H](O)[C@H](O)[C@H]2O)[C@@H](O)[C@H](O)[C@H]1O[C@@H]1O[C@H](CO)[C@@H](O)[C@H](O)[C@H]1O)C(C)(C)O)[C@H]1CC[C@@]2(C)[C@@H]3CC=C4[C@@H](CC[C@H](O[C@@H]5O[C@H](CO)[C@@H](O[C@@H]6O[C@H](CO)[C@@H](O)[C@H](O)[C@H]6O)[C@H](O)[C@H]5O)C4(C)C)[C@]3(C)[C@H](O)C[C@]12C [Isomogroside V] | 0.4% | –
19 | COc1cc2c(c(OC)c1OC)-c1c(cc3c(c1OC)OCO3)C[C@H](C)[C@H](C)C2 [Schisandrin B] | 2% | –
20 | C[C@@H]1O[C@@H](OC[C@H]2O[C@@H](OCCc3ccc(O)c(O)c3)[C@H](O)[C@@H](OC(=O)/C=C/c3ccc(O)c(O)c3)[C@@H]2O)[C@H](O)[C@H](O)[C@H]1O [Isoforsythiaside] | – | -0.9%
21 | C/C=C/C=C/C=C\CC/C=C/C(=O)NCC(C)(C)O [Hydroxy-α-sanshool] | 2.3% | –

Row | Structure (SMILES) | OC43 Inhibition rate | OC43 Inhibition rate (OC43 Inhibition rate, 24 h)
22 | COc1c(O)cc2oc(-c3ccccc3)cc(=O)c2c1O [Oroxylin A] | 1.5% | –
23 | CN1CCc2cc3c(cc2C1O)OCO3 (centres unmarked) [Hydrastinine (hydrochloride)] | – | -0.5%
24 | CC(=O)N[C@H]1[C@H](O[C@@H]([C@H](O)[C@H](C=O)NC(C)=O)[C@H](O)CO)O[C@H](CO)[C@@H](O[C@@H]2O[C@H](CO)[C@@H](O)[C@H](O)[C@H]2NC(C)=O)[C@@H]1O [N,N',N''-Triacetylchitotriose] | 0.7% | –
25 | C/C(=C\C(=O)OCCCCCCCCC(=O)O)C[C@@H]1OC[C@H](C[C@@H]2O[C@H]2[C@@H](C)[C@H](C)O)[C@@H](O)[C@H]1O [Mupirocin] | 32.7% | –
26 | CCCCCCCCCCCCCCCC(=O)O [Palmitic acid] | -7.6% | –
27 | CC(C)=CCC[C@](C)(O[C@@H]1O[C@H](CO[C@@H]2O[C@@H](CO)[C@H](O)[C@H]2O)[C@@H](O)[C@H](O)[C@H]1O)[C@H]1CC[C@]2(C)[C@@H]1[C@H](O)C[C@@H]1[C@@]3(C)CC[C@H](O[C@@H]4O[C@H](CO)[C@@H](O)[C@H](O)[C@H]4O)C(C)(C)[C@@H]3CC[C@]12C [Notoginsenoside Fe] | -1.4% | –
28 | C=Cc1ccc(O)c(OC)c1 [2-Methoxy-4-vinylphenol] | 2.1% | –
29 | COc1cc2c(=O)c(-c3ccc(O)cc3)coc2cc1O[C@@H]1O[C@H](COC(C)=O)[C@@H](O)[C@H](O)[C@H]1O [6''-O-Acetylglycitin] | -0.2% | –
30 | COc1cc(C[C@H]2COC(=O)[C@@H]2Cc2ccc(O)c(OC)c2)ccc1O [Matairesinol] | -1.2% | –
31 | COc1ccc2cc3[n+](cc2c1OC)CCc1cc2c(cc1-3)OCO2 [Berberine (sulfate)] | – | -3.2%
32 | NC(Cc1ccc(O)c(O)c1)C(=O)O (racemic) [DL-Dopa] | -1% | –
33 | Cc1c(O)cc2c(c1C)O[C@](C)(CCC[C@H](C)CCC[C@H](C)CCCC(C)C)CC2 [γ-Tocopherol] | -0.4% | –
34 | c1coc(CNc2ncnc3[nH]cnc23)c1 [Kinetin] | -0.3% | –
35 | COC(=O)c1ccc(O)c(OC)c1 [Methyl vanillate] | -0.4% | –
36 | C[C@]12CCC(=O)C=C1CC[C@@H]1[C@@H]2[C@@H](O)C[C@]2(C=O)[C@@H](C(=O)CO)CC[C@@H]12 [Aldosterone] | 0% | –
37 | CC(C)=CCO [3-Methyl-2-buten-1-ol] | 1% | –
38 | O=C(CO)[C@@H](O[C@H]1O[C@H](CO)[C@@H](O)[C@H](O)[C@H]1O)[C@H](O)[C@H](O)CO [Turanose] | -2.5% | –
39 | C=C1CC/C=C(\C)CC[C@@H]2[C@@H]1CC2(C)C [β-Caryophyllene] | 0.1% | –
40 | C[C@H]1[C@H](C)CC[C@]2(C(=O)O[C@@H]3O[C@H](CO[C@@H]4O[C@H](CO)[C@@H](O[C@@H]5O[C@H](C)[C@H](O)[C@@H](O)[C@H]5O)[C@H](O)[C@H]4O)[C@@H](O)[C@H](O)[C@H]3O)CC[C@]3(C)C(=CC[C@@H]4[C@@]5(C)C[C@@H](O)[C@H](O)[C@@](C)(CO)[C@@H]5CC[C@]43C)[C@H]12 [Asiaticoside] | -0.7% | –
41 | COc1c(O)cc2oc(-c3ccc(O)c(O)c3)cc(=O)c2c1O [Nepetin] | 0.9% | –
42 | CC(C)=CC[C@@H](OC(=O)C(C)C)C1=CC(=O)c2c(O)ccc(O)c2C1=O [Isobutylshikonin] | 19.2% | –

Three compounds already listed, arranged by length of the SMILES, low to high:
Row | Structure (SMILES) | OC43 Inhibition rate | OC43 Inhibition rate (OC43 Inhibition rate, 24 h)
32 | NC(Cc1ccc(O)c(O)c1)C(=O)O (racemic) [DL-Dopa] | -1% | –
19 | COc1cc2c(c(OC)c1OC)-c1c(cc3c(c1OC)OCO3)C[C@H](C)[C@H](C)C2 [Schisandrin B] | 2% | –
16 | c1cc2c(cc1[C@H]1OC[C@@H]3[C@H]1CO[C@H]3c1ccc3c(c1)OCO3)OCO2 [(-)-Asarinin] | 10.9% | –

Further compounds.

Row | Structure (SMILES) | OC43 Inhibition rate | OC43 Inhibition rate (OC43 Inhibition rate, 24 h)
43 | NC(Cc1c[nH]c2ccccc12)C(=O)O (racemic) [DL-Tryptophan] | 1.2% | –
44 | COc1ccccc1/C=C/C(=O)O [2-Methoxycinnamic acid] | -1.3% | –
45 | CCCCCCCC/C=C\CCCCCCCC(=O)OCC [Ethyl oleate] | -0.1% | –
46 | O=C1CCNC(=O)N1 [Dihydrouracil] | -1.1% | –
47 | CCCCCCCCCCCCC(=O)OC [Methyl tridecanoate] | -0.1% | –
48 | CNC(=S)NC [N,N'-Dimethylthiourea] | 0.6% | –
49 | NC(=O)CC[C@H](N)C(=O)O [L-Glutamine] | 2.3% | –
50 | O=C(O)C1CCCCN1 (centres unmarked) [Pipecolic acid] | -1.6% | –
51 | O=[N+]([O-])c1ccc(O)c(O)c1 [4-Nitrocatechol] | -1% | –
52 | COc1cc(O)cc2c1C(=O)C[C@@H](c1ccccc1)O2 [Alpinetin] | 2.1% | –
53 | C=C[C@H]1CN2CC[C@H]1C[C@@H]2[C@@H](O)c1ccnc2ccccc12 [Cinchonine] | 0.2% | –
54 | COC1=CC(=O)c2ccccc2C1=O [Lawsone methyl ether] | -10.6% | –
55 | CCCCCCCC(O)CC(=O)O (centres unmarked) [3-Hydroxycapric acid] | 6.8% | –
56 | C[C@H]1O[C@@H](n2cnc3c(N)ncnc32)[C@H](O)[C@@H]1O [5'-Deoxyadenosine] | -0.3% | –
57 | CC=CC(=O)C1=C(C)CCCC1(C)C [β-Damascone] | -0.1% | –
58 | OC[C@H]1O[C@@H](Oc2c[nH]c3ccccc23)[C@H](O)[C@@H](O)[C@@H]1O [Indican] | -0.5% | –
59 | Cn1cnc(CCN)c1 [1-Methylhistamine (dihydrochloride)] | 4% | –
60 | COc1ccc(C(C)=O)cc1O [3-Hydroxy-4-methoxyacetophenone] | -0.4% | –
61 | CC(C)(CC(=O)O)CC(=O)O [3,3-Dimethylglutaric acid] | -0.3% | –
62 | O=C(/C=C/c1ccc(O)c(O)c1)O[C@@H]1CC(C(=O)O)=C[C@@H](O)[C@H]1O [5-O-Caffeoylshikimic acid] | -4.3% | –
